This experiment addresses GST-C terminal of beta-catenin. The experiment is described as follows: pull-down; purified GST fusions of beta-catenin (full length, C terminal, N terminal) with 7404 cell lysate; only the target purified.

These are yes or no findings as the source states them, for the method shown. In cells and extracts the contact can be indirect. Binding calls can cover weak binding; strength is not graded here.

B1: CARF (endogenously expressed) (protein, UniProt Q9NXV6 1-580)
chain: MAQEVSEYLSQNPRVAAWVEALRCDGETDKHWRHRRDFLLRNAGDLAPAGGAASASTDEAADAESGTRNRQLQQLISFSMAWANHVFLGCRYPQKVMDKILSMAEGIKVTDAPTYTTRDELVAKVKKRGISSSNEGVEEPSKKRVIEGKNSSAVEQDHAKTSAKTERASAQQENSSTCIGSAIKSESGNSARSSGISSQNSSTSDGDRSVSSQSSSSVSSQVTTAGSGKASEAEAPDKHGSASFVSLLKSSVNSHMTQSTDSRQQSGSPKKSALEGSSASASQSSSEIEVPLLGSSGSSEVELPLLSSKPSSETASSGLTSKTSSEASVSSSVAKNSSSSGTSLLTPKSSSSTNTSLLTSKSTSQVAASLLASKSSSQTSGSLVSKSTSLASVSQLASKSSSQTSTSQLPSKSTSQSSESSVKFSCKLTNEDVKQKQPFFNRLYKTVAWKLVAVGGFSPNVNHGELLNAAIEALKATLDVFFVPLKELADLPQNKSSQESIVCELRCKSVYLGTGCGKSKENAKAVASREALKLFLKKKVVVKICKRKYRGSEIEDLVLLDEESRPVNLPPALKHPQELL
For the molecule B1, the binding result is listed as “binds”.
